Laboratory results taken from publication PMC8959458.
No constants are given. Whether binding was seen depends on the method and setting. Binding seen in cells or lysates may run through a third protein. Some entries that bind do so weakly or less than the wild type.

Molecular target: PKCα (mouse (endogenous in skeletal muscle)) (UniProt P20444)
Assay: co-IP; PKC antibody (10 μg) immobilised on resin, 1 mg skeletal muscle lysate; Nox2/Nox4 detected in the precipitate by western blot; mice inactive, exercised at 25°C or -5°C for 6 weeks, with or without VC or LCBP

| binding | Binder |
| --- | --- |
| binds | Nox4 (enzyme, UniProt Q9JHI8 1-578) MAVSWRSWLANEGVKHLCLLIWLSLNVLLFWKTFLLYNQGPEYYYIHQMLGLGLCLSRASASVLNLNCSLILLPMCRTVLAYLRGSQKVPSRRTRRLLDKSKTLHITCGVTICIFSGVHVAAHLVNALNFSVNYSEDFLELNAARYQNEDPRKLLFTTIPGLTGVCMVVVLFLMVTASTYAIRVSNYDIFWYTHNLFFVFYMLLLLHVSGGLLKYQTNVDTHPPGCISLNQTSSQNMSIPDYVSEHFHGSLPRGFSKLEDRYQKTLVKICLEEPKFQAHFPQTWIWISGPLCLYCAERLYRCIRSNKPVTIISVINHPSDVMELRMIKENFKARPGQYIILHCPSVSALENHPFTLTMCPTETKATFGVHFKVVGDWTERFRDLLLPPSSQDSEILPFIHSRNYPKLYIDGPFGSPFEESLNYEVSLCVAGGIGVTPFASILNTLLDDWKPYKLRRLYFIWVCRDIQSFQWFADLLCVLHNKFWQENRPDFVNIQLYLSQTDGIQKIIGEKYHTLNSRLFIGRPRWKLLFDEIAKCNRGKTVGVFCCGPSSISKTLHSLSNRNNSYGTKFEYNKESFS |
| binds | Nox2 (enzyme, UniProt Q61093 1-570) MGNWAVNEGLSIFVILVWLGLNVFLFINYYKVYDDGPKYNYTRKLLGSALALARAPAACLNFNCMLILLPVCRNLLSFLRGSSACCSTRIRRQLDRNLTFHKMVAWMIALHTAIHTIAHLFNVEWCVNARVGISDRYSIALSDIGDNENEEYLNFAREKIKNPEGGLYVAVTRLAGITGIVITLCLILIITSSTKTIRRSYFEVFWYTHHLFVIFFIGLAIHGAERIVRGQTAESLEEHNLDICADKIEEWGKIKECPVPKFAGNPPMTWKWIVGPMFLYLCERLVRFWRSQQKVVITKVVTHPFKTIELQMKKKGFKMEVGQYIFVKCPKVSKLEWHPFTLTSAPEEDFFSIHIRIVGDWTEGLFNACGCDKQEFQDAWKLPKIAVDGPFGTASEDVFSYEVVMLVGAGIGVTPFASILKSVWYKYCDNATSLKLKKIYFYWLCRDTHAFEWFADLLQLLETQMQERNNANFLSYNIYLTGWDESQANHFAVHHDEEKDVITGLKQKTLYGRPNWDNEFKTIASEHPNTTIGVFLCGPEALAETLSKQSISNSESGPRGVHFIFNKENF |
